Measured values from PubChem BioAssay AID1347076 (National Center for Advancing Translational Sciences (NCATS), 2019).
Screen size: about 400,000 compounds; about 13,000 (3.2%) were called active. Inconclusive means that the source gave no clear call. Such entries were picked first, then a sample of the others. The call rests on the fitted dose curve; in most records, active means well fitted cell-killing curve with a large enough effect; inconclusive means small, poorly fitted or top-dose-only effect, or effect the other way; inactive means flat fitted curve, though single readings scatter. Where the call is inconclusive, the potency comes from a doubtful curve fit.

Assay: qHTS assay for MDR1-selective chemotherapeutics: Primary screen using the drug-selected MDR subline cells KB-V1; further: nearly all actives have a fitted effect of over 60% in size
Conditions: KB-V1 MDR cells viability, CellTiter-Glo, 72 h; activity change, negative = cytotoxicity: at 46.1 µM (top of the series)
Outline: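 Cytotoxicity via CellTiter-Glo luminescence after 72 h compound exposure at 37 degrees C. Cells: drug-selected KB-V1 line, DMEM phenol-red free plus 10% FBS. Compounds tested at multiple concentrations; normalized data fitted to concentration-effect curves.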
On the % scale 0 is the no-effect control and ±100 the full control effect; potency means the concentration at half of the fitted maximal effect.

Row | Structure (SMILES) | Potency | activity change, negative = cytotoxicity
1 | CC1(C)CC(=O)C2=C(C1)OC(N)=C(C#N)C2c1ccoc1 (configuration not stated) | inconclusive: 7.31 µM [rising, partial curve] | –
2 | Cc1ccc(NC(=O)COC(=O)CC2CC3CCC2C3)cc1S(=O)(=O)N1CCOCC1 (configuration not stated) | inactive | –
3 | O=C(NN1C(=O)c2ccccc2NC1c1ccccn1)c1ccc([N+](=O)[O-])cc1 (configuration not stated) | inactive | –
4 | COc1ccc(/C=N/NC(=O)C(=O)N2CCCCCC2)cc1[N+](=O)[O-] | inconclusive: 6.51 µM [rising, partial curve, poor fit] | –
5 | CC(C)(C)C(=O)Nc1ccc2oc(-c3cc(F)c(F)cc3Cl)nc2c1 | inconclusive: 7.31 µM [cytotoxic, partial curve, poor fit] | –
6 | Cc1cc(C(=O)CSc2nnc(-c3ccco3)o2)c(C)n1Cc1ccco1 | inconclusive: 29.1 µM [cytotoxic, single point] | –
7 | Cc1ccc(NC(=O)C(=O)NCCN2CCN(C(=S)Nc3ccccc3)CC2)cc1 | inactive | –
8 | COc1ccc(C(=O)N2CCCC(CCC(=O)NCc3ccc(F)c(F)c3)C2)o1 (configuration not stated) | inconclusive: 29.1 µM [cytotoxic, single point] | –
9 | O=C(CNCc1ccccc1)Nc1ccc(Cl)cc1 | inconclusive: 18.4 µM [cytotoxic, single point] | –
10 | C=CCn1c(-c2ccccc2)n[nH]c1=S | inactive | –
11 | CCOc1ccc(OCC)c(NS(=O)(=O)c2cn(C)cn2)c1 | inactive | –
12 | Cc1cccn2c(=O)c3cc(C(=O)NCCN4CCOCC4)n(C)c3nc12 | inconclusive: 8.2 µM [cytotoxic, partial curve] | –
13 | CCN(CC)S(=O)(=O)c1cc(C(=O)O)c(Cl)cc1Cl | inactive | –
14 | Fc1ccc(N2CCN(c3ncnc4nc[nH]c34)CC2)cc1 | inactive | –
15 | COc1ccc(C(C#N)=Cc2ccc(N(C)CCC#N)cc2)cc1 | inconclusive: 20.6 µM [cytotoxic, partial curve] | –
16 | CC(O)CN1CC(O)=C(c2nc3ccccc3s2)C1=N (configuration not stated) | – | inconclusive: 31.5%
17 | CC1CCc2c(sc3nc(C4CC4)nc(N4CCN(C(=O)c5ccco5)CC4)c23)C1 (configuration not stated) | inconclusive: 20.6 µM [cytotoxic, single point] | –
18 | CCN(CC)C(=O)c1sc2nc(-c3ccc(OC)cc3)cn2c1C | active: 3.66 µM | –
19 | Cc1c(NC2(c3nnnn3-c3ccc(Br)cc3)CCCCC2)c(=O)n(-c2ccccc2)n1C | active: 3.66 µM | –
20 | COc1ccc2cc3cc(C(=O)N4CCN(c5cccc(Cl)c5)CC4)sc3nc2c1 | inconclusive: 29.1 µM [rising, single point] | –
21 | CCc1ccc(N(CC(=O)N2CCOCC2)S(C)(=O)=O)cc1 | inactive | –
22 | Cc1sc(NC(=O)CSc2n[nH]c(N)n2)c(C#N)c1C | inconclusive: 16.4 µM [rising, partial curve, poor fit] | –
23 | CC(C)(C)n1ncc2c(=O)n(CC(=O)NCc3ccccc3)cnc21 | inconclusive: 11.6 µM [cytotoxic, partial curve, poor fit] | –

Row | Structure (SMILES) | Potency | activity change, negative = cytotoxicity
24 | NC(=O)C1CCN(C(=O)C2CC(=O)N(c3ccc(F)cc3)C2)CC1 (configuration not stated) | inconclusive: 13 µM [rising, single point] | –
25 | COc1cccc(NC(=O)C2CCC2)c1 | inactive | –
26 | COc1ccc(C(=O)/C=C/c2cc(C(=O)O)cc3c2OCOC3)c(O)c1 | inactive | –
27 | Cc1ccc(CNC(=O)CSc2nc3[nH]ncc3c(=O)[nH]2)cc1 | inconclusive: 29.1 µM [rising, single point] | –
28 | CCOC(=O)c1ccc2c(c1)N(C(CC)C(=O)Nc1ccccc1OC)C(=O)c1ccccc1S2 (configuration not stated) | inconclusive: 9.2 µM [cytotoxic, partial curve] | –
29 | Cc1cccnc1NC(=O)C1CCCN1S(=O)(=O)c1ccc(Cl)cc1 (configuration not stated) | inconclusive: 8.2 µM [cytotoxic, partial curve] | –
30 | CC(=O)c1c(C)[nH]c(C(=O)OCc2cccc(Cl)c2)c1C | inconclusive: 2.31 µM [cytotoxic, full curve] | –
31 | Cc1ccc2sc3ccc(NC(=O)c4ccccc4Cl)cc3c(=O)c2c1 | inconclusive: 14.6 µM [cytotoxic, partial curve] | –
32 | COc1cccc(NC(C)C(=O)Nc2cc([N+](=O)[O-])ccc2Cl)c1 (configuration not stated) | inconclusive: 16.4 µM [cytotoxic, single point] | –
33 | O=[N+]([O-])c1ccc(NN=Cc2cc(Br)ccc2O)nc1 | inconclusive: 2.59 µM [cytotoxic, full curve, poor fit] | –
34 | COc1cc(NC(=O)c2cc3nc(C)cc(C)n3n2)c(OC)cc1Cl | inconclusive: 18.4 µM [cytotoxic, partial curve, poor fit] | –
35 | Cc1ccccc1C(=O)c1cccn1CC(=O)NC1CCCC(C)C1C (configuration not stated) | inconclusive: 9.2 µM [cytotoxic, partial curve, poor fit] | –
36 | CC(C)OC(=O)C1CC=CCC1C(=O)Nc1ccc(Cl)cc1 (configuration not stated) | inconclusive: 8.2 µM [rising, partial curve, poor fit] | –
37 | O=C(CCNS(=O)(=O)c1ccc(Br)cc1)NCCCSc1ccccc1 | inconclusive: 29.1 µM [cytotoxic, single point] | –
38 | Cc1cc(NC(=O)CCS(=O)(=O)c2cc(Br)cc3c2N(C(=O)C2CC2)CC3)ccc1Br | inconclusive: 18.4 µM [rising, single point] | –
39 | COc1c(O)cccc1/C=N/NC(=O)Cn1ccnc1C | inactive | –
40 | Cn1c(=O)cc(OCC(=O)NCc2cccs2)c2ccccc21 | inconclusive: 18.4 µM [cytotoxic, single point] | –
41 | O=C(c1cccs1)N1CCCN(c2ncnc3scc(-c4ccccc4)c23)CC1 | inconclusive: 11.6 µM [cytotoxic, partial curve] | –
42 | COc1ccccc1CNC(=O)CN1C(=O)COc2ccc(S(=O)(=O)N3CCC(C)CC3)cc21 | inconclusive: 6.51 µM [cytotoxic, full curve] | –
43 | COc1cc(OC)c(-c2nn3c(-c4n[nH]c5c4CCC5)nnc3s2)cc1OC | inconclusive: 29.1 µM [rising, single point] | –
44 | COc1ccc(CCC(=O)N2CCN(c3ccccc3)CC2)cc1OC | inconclusive: 4.11 µM [cytotoxic, full curve] | –
45 | Cc1ccc(CNc2nc(N)c([N+](=O)[O-])c(NCc3ccccc3)n2)cc1 | inactive | –
46 | O=[N+]([O-])c1ccc(S(=O)(=O)Nc2ccc(-c3ccc(N4CCOCC4)nn3)cc2)cc1 | inactive | –

Row | Structure (SMILES) | Potency | activity change, negative = cytotoxicity
47 | CCN(CC)c1nc(C#N)nc(N2CCOCC2)n1 | inconclusive: 16.4 µM [rising, single point] | –
48 | COc1ccc(NC(=O)/C(C#N)=C/c2cc(C)n(-c3ccc(F)cc3)c2C)cc1 | inconclusive: 29.1 µM [rising, single point] | –
49 | CCOc1ccc(Nc2ncnc3c2cnn3Cc2ccccc2)cc1 | inconclusive: 23.1 µM [cytotoxic, single point] | –
50 | COc1ccc(OC)c(-c2csc(NC(=O)Cc3cc(OC)c(OC)c(OC)c3)n2)c1 | inconclusive: 10.3 µM [cytotoxic, partial curve, poor fit] | –
51 | Cc1ccc(-n2c(=O)c3c4c(sc3n(Cc3cccc(Cl)c3)c2=O)CCC4)cc1C | inactive | –
52 | CCOc1ccc2nc(SC3CC(=O)N(c4ccc(OC)cc4)C3=O)sc2c1 (configuration not stated) | inactive | –
53 | CCCNC(=O)c1cnc(Sc2ncc(C(F)(F)F)cc2Cl)n1C | inconclusive: 23.1 µM [cytotoxic, single point] | –
54 | CS(=O)(=O)c1ccc(C(=O)OCC(=O)c2ccc(Cl)s2)cc1 | inconclusive: 8.2 µM [rising, partial curve] | –
55 | COc1ccc(S(=O)(=O)N2CCOCC2)cc1NC(=O)c1ccc(SC)cc1OC | inconclusive: 3.66 µM [cytotoxic, partial curve, poor fit] | –
56 | CC(C)(C)N1C(=O)c2ccccc2NC(=O)C1C(=O)Nc1ccc2c(c1)OCCO2 (configuration not stated) | inactive | –
57 | COc1ccc(NC(=O)CSc2nnnn2C2CCCC2)c(OC)c1 | inconclusive: 3.66 µM [cytotoxic, full curve] | –
58 | O=C1c2ccc(Oc3ccc([N+](=O)[O-])cc3)cc2C(=O)N1CCCO | inconclusive: 23.1 µM [rising, single point] | –
59 | Cc1ccc(S(=O)(=O)Nc2ccc3c(c2)CC(=O)N([C@H](C)CO)C[C@@H](C)[C@H](CN(C)Cc2ccc(-c4ccccc4)cc2)O3)cc1 | inconclusive: 18.4 µM [cytotoxic, single point] | –
60 | COc1ccc2c(c1)c(CC(=O)OCC(=O)N(C)C)c(C)n2C(=O)c1ccc(Cl)cc1 | inconclusive: 10.3 µM [cytotoxic, partial curve] | –
61 | COC(=O)c1c(NC(=O)CN2CCN(Cc3ccc4c(c3)OCO4)CC2)sc(C)c1C | inconclusive: 35.5 µM [cytotoxic, single point] | –
62 | Cc1ccc2nc(N3CCN(Cc4ccc(F)cc4)C3=O)c(C)cc2c1 | inconclusive: 11.6 µM [cytotoxic, partial curve, poor fit] | –
63 | CC1CCN(c2ccc([N+](=O)[O-])cc2C(=O)O)CC1 | inactive | –
64 | CC1CCCCN1C(=O)COc1ccc(F)cc1 (configuration not stated) | inactive | –
65 | COc1cc(OC)cc(C(=O)Oc2c(CN3CCOCC3)cc(Cl)c3cccnc23)c1 | inconclusive: 2.31 µM [cytotoxic, partial curve, poor fit] | –
66 | COc1ccc(-c2[nH]c(-c3ccccc3)nc2SCC(=O)NCc2ccco2)cc1OC | inconclusive: 20.6 µM [rising, single point] | –
67 | O=C(Nc1ccc(N2CCOCC2)c(S(=O)(=O)Nc2cc(Cl)ccc2Cl)c1)c1cccnc1 | inconclusive: 18.4 µM [cytotoxic, partial curve] | –

Entries of single compounds from above.
`CCOc1ccc(Nc2ncnc3c2cnn3Cc2ccccc2)cc1` in the list: Potency: inconclusive: 23.1 µM [cytotoxic, single point]
`COc1ccc(NC(=O)/C(C#N)=C/c2cc(C)n(-c3ccc(F)cc3)c2C)cc1` in the list: Potency: inconclusive: 29.1 µM [rising, single point]
`CCCNC(=O)c1cnc(Sc2ncc(C(F)(F)F)cc2Cl)n1C` in the list: Potency: inconclusive: 23.1 µM [cytotoxic, single point]
`CCN(CC)c1nc(C#N)nc(N2CCOCC2)n1` in the list: Potency: inconclusive: 16.4 µM [rising, single point]
